Laboratory results published in PMC3008709.
These are yes or no findings as the source states them, for the method shown. Binding seen in cells or lysates may run through a third protein. A result given as binding can be weak or reduced; the word gives no strength. Sequences can lack the tags named with a protein.

Tests used:
[1] = target: T1, full-length human IKKβ (Inhibitor of NFκB Kinase β subunit), non-epitope-tagged (human) (UniProt O14920); assay: co-IP; HEK293 cells co-transfected; lysed in 1% NP-40 lysis buffer; immunoprecipitated with IKKβ (H-4) antibody, immunoblot with FGFR4 (C-16) antibody
T1 sequence: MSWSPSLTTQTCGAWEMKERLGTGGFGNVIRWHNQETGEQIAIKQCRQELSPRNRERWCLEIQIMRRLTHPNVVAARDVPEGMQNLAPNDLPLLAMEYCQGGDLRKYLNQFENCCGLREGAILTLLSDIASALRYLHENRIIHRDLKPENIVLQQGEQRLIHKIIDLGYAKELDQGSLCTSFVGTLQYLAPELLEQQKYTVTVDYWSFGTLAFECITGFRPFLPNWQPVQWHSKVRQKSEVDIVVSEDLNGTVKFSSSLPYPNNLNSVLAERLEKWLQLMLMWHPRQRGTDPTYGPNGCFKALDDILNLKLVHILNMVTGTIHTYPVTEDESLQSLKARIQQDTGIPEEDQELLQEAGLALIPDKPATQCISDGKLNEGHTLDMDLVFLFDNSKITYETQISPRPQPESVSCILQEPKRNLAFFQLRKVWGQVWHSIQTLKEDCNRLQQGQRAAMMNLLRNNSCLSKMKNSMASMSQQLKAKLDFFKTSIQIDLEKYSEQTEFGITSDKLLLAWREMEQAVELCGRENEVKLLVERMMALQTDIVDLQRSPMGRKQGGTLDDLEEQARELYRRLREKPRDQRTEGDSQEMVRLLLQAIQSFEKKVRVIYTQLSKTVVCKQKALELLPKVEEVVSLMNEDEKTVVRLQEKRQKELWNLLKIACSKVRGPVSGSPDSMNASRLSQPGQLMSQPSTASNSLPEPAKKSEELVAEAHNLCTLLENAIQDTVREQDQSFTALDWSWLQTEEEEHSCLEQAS

[2] = target: full-length constitutively active FGFR4-K645E; assay: co-IP; HEK293 cells co-transfected; lysed in 1% NP-40 lysis buffer; immunoprecipitated with FGFR4 (C-16) antibody, immunoblot with IKKβ (H-4) antibody
[3] = target: full-length kinase-dead FGFR4 (FGFR4-KD, K504M); assay: as above

Molecule	binding [1]	binding [2]	binding [3]
full-length constitutively active FGFR4-K645E (receptor)	binds		
full-length kinase-dead FGFR4 (FGFR4-KD, K504M) (receptor)	binds		
full-length human IKKβ (Inhibitor of NFκB Kinase β subunit), non-epitope-tagged (enzyme, UniProt O14920-1 1-756) MSWSPSLTTQTCGAWEMKERLGTGGFGNVIRWHNQETGEQIAIKQCRQELSPRNRERWCLEIQIMRRLTHPNVVAARDVPEGMQNLAPNDLPLLAMEYCQGGDLRKYLNQFENCCGLREGAILTLLSDIASALRYLHENRIIHRDLKPENIVLQQGEQRLIHKIIDLGYAKELDQGSLCTSFVGTLQYLAPELLEQQKYTVTVDYWSFGTLAFECITGFRPFLPNWQPVQWHSKVRQKSEVDIVVSEDLNGTVKFSSSLPYPNNLNSVLAERLEKWLQLMLMWHPRQRGTDPTYGPNGCFKALDDILNLKLVHILNMVTGTIHTYPVTEDESLQSLKARIQQDTGIPEEDQELLQEAGLALIPDKPATQCISDGKLNEGHTLDMDLVFLFDNSKITYETQISPRPQPESVSCILQEPKRNLAFFQLRKVWGQVWHSIQTLKEDCNRLQQGQRAAMMNLLRNNSCLSKMKNSMASMSQQLKAKLDFFKTSIQIDLEKYSEQTEFGITSDKLLLAWREMEQAVELCGRENEVKLLVERMMALQTDIVDLQRSPMGRKQGGTLDDLEEQARELYRRLREKPRDQRTEGDSQEMVRLLLQAIQSFEKKVRVIYTQLSKTVVCKQKALELLPKVEEVVSLMNEDEKTVVRLQEKRQKELWNLLKIACSKVRGPVSGSPDSMNASRLSQPGQLMSQPSTASNSLPEPAKKSEELVAEAHNLCTLLENAIQDTVREQDQSFTALDWSWLQTEEEEHSCLEQAS		binds	binds
